The values that follow come from doi:10.1101/2022.12.23.521824.

No constants are given. Whether binding was seen depends on the method and setting. Binding seen in cells or lysates may run through a third protein. A result given as binding can be weak or reduced; the word gives no strength. Where a sequence is shown, tags or fusion partners need not be part of it.

The target in this assay is ZZ-tagged Haus6 (Xenopus laevis). As to the kind of experiment: co-purification.

B1: Strep-GFP-tagged Haus8 (protein, UniProt Q0IHJ3 1-367)
chain: MSEAGVAPIEDGSQNSSGGSSGDAALKKSKGGAKVVKSRYMQIGRSKVSKNSLANTTVCSGGKVPERGSGGTPTRRSLAPHKAKITAAVPLPALDGSIFTKEDLQSTLLDGHRIARPDLDLSVINDRTLQKITPRPVVTSEQKKPKRDTTPVNLVPEDMVEMIESQTLLLTYLTIKMQKNLFRLEEKAERNLLLVNDQKDQLQETIHMMKRDLTLLQREERLRDLIEKQDEVLTPVVTSKDPFKDNYTTFATALDSTRHQLAIKNIHITGNRHRYLEELQKHLAITKSLLEEIMPSHASENAESFDTIKDLENIVLKTDEELARSFRQILDLSFKVNKEISLQSQKAVEETCESALVRQWYFDGSLP
Consider B1, for which the binding entry was “binds”.

B2: Strep-GFP-tagged Haus3 (protein, UniProt Q6DCY9 1-597)
chain: MSGGDRFVQTLQKLNYPKGAQLDGEDFDWLFEAVDLKPFLDWFCSAASEQNVVPDEKLQAFNTLKESGKPVLDEKALDEVLKTFSISKVPAIEEVAIEKLEEEVKALQKQKNLHIRRRNKLQMVESGNRQMCLKSKDKEEETGRAFQEVLHLLRVTNKKLNHELQSIVNGVQTLMSFFSTPETACELSSQPIFLSQLLLDKYLSLEEQSTAALTSFTKEHFFEGMSKFVEGSDENFQLVQLNVNSFGEDGTTEDKCKEMMRLQLAYICAKHKLIQMKAKSASLKVGLQWAENNASVVQDKASQKEENLKVRITSLKNETLQIENHTNSISNEKLPGLVRDNAQLLNMPIVKGDYDLQMAHQTSCSSRQDLVCDHLMKQKASFELLQLGYELELRKHRDVYRELGSIVQELKESGDKLEERLTMLSDVNLLSASKPRSNIDSKDLTSHRLYQLLDGDNTQKLFRTYDGLESVAQKLSQDIASMRDQLEVSEQEHSLLLSKLDSHLKELRDFMYPEGNTLMLTTPELSGEFHQLGSQLEKLNHITVEILGDLQLKRKMLESNKLQQIEKQLYVYFFQNEEQLKSIVGKLEAQTGGGSSA
Take B2: the binding result is recorded as “binds”.
